Data on one molecule can be found in article PMC7794610.

The test addresses MNT (of the co-IP with REL ΔRID; construct not told) (not stated (human or mouse cDNA cloned)). Nature of the test: co-IP; REL wild type or REL lacking the RID with MNT (Supplementary Fig. S1c,d); cells and MNT construct not given.

These are yes or no findings as the source states them, for the method shown. Binding seen in cells or lysates may run through a third protein. Binding can be weak; no strength is given. Where a sequence is shown, tags or fusion partners need not be part of it.

B1: human FLAG-REL (protein, UniProt Q04864 1-619)
chain: MASGAYNPYIEIIEQPRQRGMRFRYKCEGRSAGSIPGEHSTDNNRTYPSIQIMNYYGKGKVRITLVTKNDPYKPHPHDLVGKDCRDGYYEAEFGQERRPLFFQNLGIRCVKKKEVKEAIITRIKAGINPFNVPEKQLNDIEDCDLNVVRLCFQVFLPDEHGNLTTALPPVVSNPIYDNRAPNTAELRICRVNKNCGSVRGGDEIFLLCDKVQKDDIEVRFVLNDWEAKGIFSQADVHRQVAIVFKTPPYCKAITEPVTVKMQLRRPSDQEVSESMDFRYLPDEKDTYGNKAKKQKTTLLFQKLCQDHVETGFRHVDQDGLELLTSGDPPTLASQSAGITVNFPERPRPGLLGSIGEGRYFKKEPNLFSHDAVVREMPTGVSSQAESYYPSPGPISSGLSHHASMAPLPSSSWSSVAHPTPRSGNTNPLSSFSTRTLPSNSQGIPPFLRIPVGNDLNASNACIYNNADDIVGMEASSMPSADLYGISDPNMLSNCSVNMMTTSSDSMGETDNPRLLSMNLENPSCNSVLDPRDLRQLHQMSSSSMSAGANSNTTVFVSQSDAFEGSDFSCADNSMINESGPSNSTNPNSHGFVQDSQYSGIGSMQNEQLSDSFPYEFFQV
With B1, the binding result was “binds”.
